Measurements: patent publication US20050187221A1, “Method of treating ischemia reperfusion injury” (Japan Tobacco Inc., priority 2003, published 2005)

Tested on: hearts of Sprague-Dawley rats (myocardial ischemia reperfusion injury)
Experiment: Cardiac function of isolated Langendorff-perfused rat hearts after 30 min global ischemia and 60 min reperfusion
Assay type: ex vivo
Conditions: 10 mg/kg intraperitoneally
Experimental: Sixteen Sprague-Dawley rats (300 g, male) were divided into a control group (“C group,” n=8) and a group administered (−)-ethyl N-{3,5-dichloro-2-hydroxy-4-[2-(4-methylpiperazin-1-yl)ethoxy]benzoyl}-L-phenylalaninate dihydrochloride (“J group,” n=8). All rats were anesthesized by intraperitoneal injection of sodium pentobarbital (50 mg/kg), and either (a) 0.5 mL of saline (C group) or (b) 10 mg/kg of (−)-ethyl N-{3,5-dichloro-2-hydroxy-4-[2-(4-methylpiperazin-1-yl)ethoxy]benzoyl}-L-phenylalaninate dihydrochloride dissolved in 5% mannitol (J group) was administered intraperitoneally to the rats. Anticoagulation was ensured by the intraperitoneal administration of 200 USP units of heparin. […]
After stabilization, heart rate (HR), left ventricular developed pressure (LVDP), maximum dP/dt (maximum dP/dt), and coronary flow (CF) were measured with LV diastolic pressure stabilized at 10 mm Hg. […] HR, LVDP, maximum dP/dt, and CF were continuously measured after reperfusion and analyzed using a Polygraph System (Nihon Kouden, Japan).
There were significant differences between the two groups, however, following global ischemia and reperfusion. FIGS. 1 and 2 depict the cardiac function (as measured by LVDP and maximum dP/dt) after ischemia reperfusion between the C and J groups. For the following parameters, data are expressed as mean±standard error of the mean (SEM). […]

## CCOC(=O)[C@H](Cc1ccccc1)NC(=O)c1cc(Cl)c(OCCN2CCN(C)CC2)c(Cl)c1O [(−)-ethyl N-{3,5-dichloro-2-hydroxy-4-[2-(4-methylpiperazin-1-yl)ethoxy]benzoyl}-L-phenylalaninate dihydrochloride]
  CF or HR before ischemia reperfusion, J group versus C group: no significant difference
  cardiac function (LVDP and maximum dP/dt) before ischemia reperfusion, J group versus C group: no significant difference

Where a name gives a salt, the structure may show the parent alone.
